Source: PubChem BioAssay AID1259254 (NCATS, 2017)
In all, the deposit lists about 59,000 reagents; shown is a random part of them. About 1,550 of all reagents (2.6%) were called active. 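G2 share is only a proxy for re-replication; each gene was hit by three separate siRNAs, and active genes were retested.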 The numbers tell different reagents against one gene apart. Further read-outs or replicates are left out here. Not stated in the record: the amount of reagent.

Test: 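Genome-wide screen for genes that prevent DNA re-replication in cancer cells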 (primary screen)
Cells: human HCT116 colorectal cancer cells
Reagent: single siRNA against human genes
Duration: 3 days
Detection: 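Nuclei stained with Hoechst and imaged; cell-cycle phase assigned by DNA content; G2 share scaled per plate, non-targeting siRNA 0%, GMNN siRNA 100%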
Direction: G2 robust z-score and G2 cells, % of GMNN control: higher = more G2 cells, more excess DNA replication
Rule for the call: 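An siRNA counts as active if its G2 robust z-score lies at least 5 MADs above the screen median; here such calls match roughly 38% of GMNN control or more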

OSBPL7 (oxysterol binding protein like 7) #1 showed G2 robust z-score 0.427; G2 cells, % of GMNN control 5.97; inactive.
OSBPL7 (oxysterol binding protein like 7) #2 gave G2 robust z-score -0.645; G2 cells, % of GMNN control -1.57; inactive.
Against OSBPL7 (oxysterol binding protein like 7) #3, the values are G2 robust z-score -0.202; G2 cells, % of GMNN control 1.55; inactive.
OCM2 (oncomodulin 2) #1 showed G2 robust z-score -0.52; G2 cells, % of GMNN control -0.695; inactive.
OCM2 (oncomodulin 2) #2 showed G2 robust z-score 0.548; G2 cells, % of GMNN control 6.82; inactive.
With knock-down of OCM2 (oncomodulin 2) #3, the screen gave G2 robust z-score -0.136; G2 cells, % of GMNN control 2.01; inactive.

Quoted from the listing (3 entries):
OSBPL7 (oxysterol binding protein like 7) #2 → G2 robust z-score = -0.645; G2 cells, % of GMNN control = -1.57; activity call = inactive
OSBPL7 (oxysterol binding protein like 7) #3 → G2 robust z-score = -0.202; G2 cells, % of GMNN control = 1.55; activity call = inactive
OCM2 (oncomodulin 2) #1 → G2 robust z-score = -0.52; G2 cells, % of GMNN control = -0.695; activity call = inactive

Additional records:
Against FAM187B (family with sequence similarity 187 member B) #1, the values are G2 robust z-score 0.0738; G2 cells, % of GMNN control 3.49; inactive.
With knock-down of FAM187B (family with sequence similarity 187 member B) #2, the screen gave G2 robust z-score 0.416; G2 cells, % of GMNN control 5.9; inactive.
FAM187B (family with sequence similarity 187 member B) #3 scored G2 robust z-score -0.0256; G2 cells, % of GMNN control 2.79; inactive.
LRRC45 (leucine rich repeat containing 45) #1 scored G2 robust z-score 1.2; G2 cells, % of GMNN control 11.4; inactive.
Depletion of LRRC45 (leucine rich repeat containing 45) #2 gave: G2 robust z-score -0.12; G2 cells, % of GMNN control 2.12; inactive.
Against LRRC45 (leucine rich repeat containing 45) #3, the values are G2 robust z-score 0.303; G2 cells, % of GMNN control 5.1; inactive.
For MRGPRG (MAS related GPR family member G) #1, the entry reads G2 robust z-score 0.0604; G2 cells, % of GMNN control 3.39; inactive.
Knock-down of MRGPRG (MAS related GPR family member G) #2 came out at: G2 robust z-score 1.81; G2 cells, % of GMNN control 15.7; inactive.
Against MRGPRG (MAS related GPR family member G) #3, the entry reads G2 robust z-score 0.765; G2 cells, % of GMNN control 8.35; inactive.
With knock-down of PRKAG3 (protein kinase AMP-activated non-catalytic subunit gamma 3) #1, the record shows G2 robust z-score -0.53; G2 cells, % of GMNN control -0.759; inactive.
For PRKAG3 (protein kinase AMP-activated non-catalytic subunit gamma 3) #2, the values are G2 robust z-score 0.851; G2 cells, % of GMNN control 8.96; inactive.
PRKAG3 (protein kinase AMP-activated non-catalytic subunit gamma 3) #3 showed G2 robust z-score -0.474; G2 cells, % of GMNN control -0.371; inactive.
